Measured values published in ChEMBL document CHEMBL4316593 (Eur J Med Chem, 2019).
The source gives many values for each of these; only a part stands here.

Tests used:
Type in all cases: cell-based
Conditions in all cases: U-87MG ATCC
[1] = Inhibition of RTK/PI3K/AKT/mTOR signaling in human U87 cells assessed as up regulation of TBC1D20 gene expression at cytotoxic IC50 measured after 48 hrs relative to control
[2] = Inhibition of RTK/PI3K/AKT/mTOR signaling in human U87 cells assessed as down regulation of GREB1L gene expression at cytotoxic IC50 measured after 48 hrs relative to control
[3] = Inhibition of RTK/PI3K/AKT/mTOR signaling in human U87 cells assessed as up regulation of eukaryotic translation initiation factor 2 subunit gamma gene expression at cytotoxic IC50 measured after 48 hrs relative to control
[4] = Inhibition of RTK/PI3K/AKT/mTOR signaling in human U87 cells assessed as up regulation of TRIO and F-actin binding protein gene expression at cytotoxic IC50 measured after 48 hrs relative to control
[5] = Inhibition of RTK/PI3K/AKT/mTOR signaling in human U87 cells assessed as up regulation of glycogen phosphorylase L gene expression at cytotoxic IC50 measured after 48 hrs relative to control
[6] = Inhibition of RTK/PI3K/AKT/mTOR signaling in human U87 cells assessed as down regulation of ANKRD13C gene expression at cytotoxic IC50 measured after 48 hrs relative to control
[7] = Inhibition of RTK/PI3K/AKT/mTOR signaling in human U87 cells assessed as up regulation of F-box protein 25 gene expression at cytotoxic IC50 measured after 48 hrs relative to control
[8] = Inhibition of RTK/PI3K/AKT/mTOR signaling in human U87 cells assessed as down regulation of SLC4A1AP gene expression at cytotoxic IC50 measured after 48 hrs relative to control
[9] = Inhibition of RTK/PI3K/AKT/mTOR signaling in human U87 cells assessed as down regulation of ABL2 gene expression at cytotoxic IC50 measured after 48 hrs relative to control
[10] = Inhibition of RTK/PI3K/AKT/mTOR signaling in human U87 cells assessed as down regulation of SVIL-AS1 gene expression at cytotoxic IC50 measured after 48 hrs relative to control
[11] = Inhibition of RTK/PI3K/AKT/mTOR signaling in human U87 cells assessed as up regulation of ATPase phospholipid transporting 11C gene expression at cytotoxic IC50 measured after 48 hrs relative to control
[12] = Inhibition of RTK/PI3K/AKT/mTOR signaling in human U87 cells assessed as down regulation of MAIP1 gene expression at cytotoxic IC50 measured after 48 hrs relative to control
[13] = Inhibition of RTK/PI3K/AKT/mTOR signaling in human U87 cells assessed as up regulation of VEGFA gene expression at cytotoxic IC50 measured after 48 hrs relative to control
[14] = Inhibition of RTK/PI3K/AKT/mTOR signaling in human U87 cells assessed as up regulation of pleckstrin homology like domain family B member 2 gene expression at cytotoxic IC50 measured after 48 hrs relative to control
[15] = Inhibition of RTK/PI3K/AKT/mTOR signaling in human U87 cells assessed as down regulation of ARL6IP1 gene expression at cytotoxic IC50 measured after 48 hrs relative to control
[16] = Inhibition of RTK/PI3K/AKT/mTOR signaling in human U87 cells assessed as up regulation of SERPINA1 gene expression at cytotoxic IC50 measured after 48 hrs relative to control
[17] = Inhibition of RTK/PI3K/AKT/mTOR signaling in human U87 cells assessed as down regulation of ELP4 gene expression at cytotoxic IC50 measured after 48 hrs relative to control
[18] = Inhibition of RTK/PI3K/AKT/mTOR signaling in human U87 cells assessed as down regulation of ZBTB21 gene expression at cytotoxic IC50 measured after 48 hrs relative to control
[19] = Inhibition of RTK/PI3K/AKT/mTOR signaling in human U87 cells assessed as down regulation of PRDM4 gene expression at cytotoxic IC50 measured after 48 hrs relative to control
[20] = Inhibition of RTK/PI3K/AKT/mTOR signaling in human U87 cells assessed as down regulation of BLM gene expression at cytotoxic IC50 measured after 48 hrs relative to control
[21] = Inhibition of RTK/PI3K/AKT/mTOR signaling in human U87 cells assessed as down regulation of DISP1 gene expression at cytotoxic IC50 measured after 48 hrs relative to control
[22] = Inhibition of RTK/PI3K/AKT/mTOR signaling in human U87 cells assessed as down regulation of ZNF138 gene expression at cytotoxic IC50 measured after 48 hrs relative to control
[23] = Inhibition of RTK/PI3K/AKT/mTOR signaling in human U87 cells assessed as up regulation of adhesion G protein-coupled receptor L1 gene expression at cytotoxic IC50 measured after 48 hrs relative to control
[24] = Inhibition of RTK/PI3K/AKT/mTOR signaling in human U87 cells assessed as up regulation of doublecortin like kinase 1 gene expression at cytotoxic IC50 measured after 48 hrs relative to control
[25] = Inhibition of RTK/PI3K/AKT/mTOR signaling in human U87 cells assessed as down regulation of GMNN gene expression at cytotoxic IC50 measured after 48 hrs relative to control
[26] = Inhibition of RTK/PI3K/AKT/mTOR signaling in human U87 cells assessed as down regulation of MICA gene expression at cytotoxic IC50 measured after 48 hrs relative to control
[27] = Inhibition of RTK/PI3K/AKT/mTOR signaling in human U87 cells assessed as down regulation of KIF23 gene expression at cytotoxic IC50 measured after 48 hrs relative to control
[28] = Inhibition of RTK/PI3K/AKT/mTOR signaling in human U87 cells assessed as up regulation of KLK10 gene expression at cytotoxic IC50 measured after 48 hrs relative to control
[29] = Inhibition of RTK/PI3K/AKT/mTOR signaling in human U87 cells assessed as down regulation of DDIAS gene expression at cytotoxic IC50 measured after 48 hrs relative to control
[30] = Inhibition of RTK/PI3K/AKT/mTOR signaling in human U87 cells assessed as up regulation of FBLIM1 gene expression at cytotoxic IC50 measured after 48 hrs relative to control
[31] = Inhibition of RTK/PI3K/AKT/mTOR signaling in human U87 cells assessed as down regulation of NAV2 gene expression at cytotoxic IC50 measured after 48 hrs relative to control
[32] = Inhibition of RTK/PI3K/AKT/mTOR signaling in human U87 cells assessed as down regulation of CEP97 gene expression at cytotoxic IC50 measured after 48 hrs relative to control

SMILES: CC(=O)C(=NNc1ccccc1C#N)C(C)=O
- log2FC [1]: 0.541
- log2FC [2]: -2.17
- log2FC [3]: 0.712
- log2FC [4]: 0.826
- log2FC [5]: 0.716
- log2FC [6]: -0.602
- log2FC [7]: 0.773
- log2FC [8]: -0.715
- log2FC [9]: -0.507
- log2FC [10]: -0.969
- log2FC [11]: 0.878
- log2FC [12]: -1.04
- log2FC [13]: 1.86
- log2FC [14]: 1.37
- log2FC [15]: -0.486
- log2FC [16]: 1.96
- log2FC [17]: -1.02
- log2FC [18]: -0.603
- log2FC [19]: -0.79
- log2FC [20]: -1.34
- log2FC [21]: -1.06
- log2FC [22]: -2.04
- log2FC [23]: 1.28
- log2FC [24]: 1.42
- log2FC [25]: -1.8
- log2FC [26]: -0.953
- log2FC [27]: -0.629
- log2FC [28]: 2.19
- log2FC [29]: -2.02
- log2FC [30]: 3.31
- log2FC [31]: -1.82
- log2FC [32]: -1.54
